Results: PubChem BioAssay AID330 (DTP/NCI, 2004)
The list does not hold the whole screen: it is rich in T/C values a quarter to a half above the control, in often repeated tests (any T/C) and in doses without a T/C. Further doses and runs are listed elsewhere. T/C is the treated group as % of the vehicle group. Some doses have a count of surviving animals in place of a T/C: the source holds a T/C of zero for them, seemingly a mark for toxic or unscored doses. Some doses without a T/C left all or most animals alive at the check, yet need not have been tolerated: the source hardly ever lists a survival T/C far under the control, and the zero likely stands for such cases as well. Survivors were counted at the toxicity check, usually on the fifth day, unless a day is given; later deaths do not show. Schedules are NCI's codes, taken here to give the interval after Q, in days (D) or hours (H), and the number of doses after X. Some doses were run more than once; the results are listed from low to high. Some molecules as drawn cover several salts, stereoisomers or complexes of the source; a dose is that of the sample tested. For survival time, this PubChem deposit counts one and a half times the control or more as active, and values a quarter to a half above the control carry no call in these data; other NCI protocols may use other cut-offs. Some T/C values are followed by the survivors on the day toxicity was checked, most often the fifth; where none is given, no animal had died by that day.

Tested on: P388 leukemia ip, CD2F1 mice, survival T/C
Test: NCI In Vivo Anticancer Drug Screen. Data for tumor model P388 Leukemia (intraperitoneal) in CD2F1 (CDF1) mice
Conditions: T/C endpoint: median survival time, higher T/C = longer survival
[1] = dose: 50.0 mg/kg/injection, schedule: Q01DX009 (ip), vehicle: Klucel (hydroxypropylcellulose) (HPC)
[2] = dose: 400.0 mg/kg/injection, schedule: Q01DX009 (ip), vehicle: Klucel (hydroxypropylcellulose) (HPC)

In the case of COC(=O)Nc1cn2cc(C(=O)c3cccs3)ccc2n1, the T/C [1] is reported as 126 % of control, the T/C (dose: 100.0 mg/kg/injection, schedule: Q01DX009 (ip), vehicle: Klucel (hydroxypropylcellulose) (HPC)) is reported as 133 and 147 % of control [5 of 6 alive] and the T/C (dose: 200.0 mg/kg/injection, schedule: Q01DX009 (ip), vehicle: Klucel (hydroxypropylcellulose) (HPC)) is reported as 132 % of control. For the same molecule, the survivor count [2] was 0 of 6.
C(=N/n1nnc(-c2ccccc2)n1)/c1ccccc1 was tested, and the survivor count (dose: 200.0 mg/kg/injection, schedule: Q01DX005 (ip), vehicle: saline with Tween-80) was 5 of 5.
For C#CCN(Cc1ccc2nc(N)[nH]c(=O)c2c1)c1ccc(C(=O)NC(CCC(=O)O)C(=O)O)cc1 (stereo not drawn), the T/C (dose: 30.0 mg/kg/injection, schedule: Q01DX005 (ip), vehicle: sodium bicarbonate) was 128 % of control, the T/C (dose: 60.0 mg/kg/injection, schedule: Q01DX005 (ip), vehicle: sodium bicarbonate) was 127 % of control and the T/C (dose: 100.0 mg/kg/injection, schedule: Q01DX005 (ip), vehicle: alkali diluted with water, evaluated on day 30) was 147 % of control. The T/C (dose: 100.0 mg/kg/injection, schedule: Q01DX005 (ip), vehicle: alkali diluted with water, evaluated on day 45) was 138 % of control, the T/C (dose: 100.0 mg/kg/injection, schedule: Q01DX005 (ip), vehicle: water, evaluated on day 20) was 132 % of control and the T/C (dose: 100.0 mg/kg/injection, schedule: Q01DX005 (ip), vehicle: water, evaluated on day 30) was 130 % of control. For the same molecule, the T/C (dose: 120.0 mg/kg/injection, schedule: Q01DX005 (ip), vehicle: sodium bicarbonate) was 145 % of control, the T/C (dose: 125.0 mg/kg/injection, schedule: Q01DX005 (ip), vehicle: alkali diluted with water, evaluated on day 30) was 144 % of control and the T/C (dose: 125.0 mg/kg/injection, schedule: Q01DX005 (ip), vehicle: alkali diluted with water, evaluated on day 45) was 135 % of control. For the same molecule, the survivor count (dose: 200.0 mg/kg/injection, schedule: Q01DX005 (ip), vehicle: water) was 2 of 6 and 5 of 6.
COc1c2c(cc3c1OCO3)[C@]13C=C[C@H](OC)C[C@H]1N(C2)CC3O (stereo partly drawn) was tested, and the survivor count (dose: 2.5 mg/kg/injection, schedule: Q01DX009 (ip), vehicle: saline with Tween-80) was 1 of 6, the survivor count (dose: 5.0 mg/kg/injection, schedule: Q01DX001 (ip), vehicle: saline) was 3 of 6 and the survivor count (dose: 10.0 mg/kg/injection, schedule: Q01DX001 (ip), vehicle: saline with Tween-80) was 1 of 6. The survivor count (dose: 20.0 mg/kg/injection, schedule: Q01DX001 (ip), vehicle: saline with Tween-80) was 0 of 6, the survivor count (dose: 100.0 mg/kg/injection, schedule: Q01DX001 (ip), vehicle: saline with Tween-80) was 0 of 6 and the survivor count (dose: 200.0 mg/kg/injection, schedule: Q01DX001 (ip), vehicle: saline with Tween-80) was 0 of 6. For the same molecule, the survivor count (dose: 400.0 mg/kg/injection, schedule: Q01DX001 (ip), vehicle: saline with Tween-80) was 0 of 6.
O=[N+]([O-])c1nccn1CCCl was tested, and the survivor count (dose: 100.0 mg/kg/injection, schedule: Q01DX009 (ip), vehicle: distilled water + Tween-80) was 3 of 6 and the survivor count (dose: 200.0 mg/kg/injection, schedule: Q01DX009 (ip), vehicle: distilled water + Tween-80) was 0 of 6.
CCOc1ccc2c(N=[N+]=[N-])cc(C)nc2c1 was tested, and the survivor count (dose: 120.0 mg/kg/injection, schedule: Q01DX005 (ip), vehicle: saline with Tween-80) was 6 of 6 and the survivor count (dose: 240.0 mg/kg/injection, schedule: Q01DX005 (ip), vehicle: saline with Tween-80) was 0 of 6.
With CC(C)CC1NC(=O)C(NC(=O)c2ncccc2O)C(C)OC(=O)C(c2ccccc2)N(C)C(=O)C(C)NC(=O)C(C(C)C(C)C)N(C)C(=O)CN(C)C(=O)C2CC(O)CN2C1=O (stereo not drawn) the survivor count [1] was 6 of 6, the survivor count [2] was 0 of 6 and 1 of 6 and the survivor count (dose: 600.0 mg/kg/injection, schedule: Q01DX009 (ip), vehicle: Klucel (hydroxypropylcellulose) (HPC)) was 0 of 6.
For OC(c1cc2cc(Cl)c(Cl)cc2c2cc(C(F)(F)F)ccc12)C1CCCCN1 (stereo not drawn), the survivor count (dose: 25.0 mg/kg/injection, schedule: Q01DX009 (ip), vehicle: saline with Tween-80) was 6 of 6, the survivor count (dose: 50.0 mg/kg/injection, schedule: Q01DX009 (ip), vehicle: saline with Tween-80) was 2 of 6 and the survivor count (dose: 100.0 mg/kg/injection, schedule: Q01DX009 (ip), vehicle: saline with Tween-80) was 0 of 6. For the same molecule, the survivor count (dose: 200.0 mg/kg/injection, schedule: Q01DX009 (ip), vehicle: saline with Tween-80) was 0 of 6.
